Data taken from US20100256056A1 (published 2010).

Assay: general procedure: Boc solid-phase peptide synthesis; 4-Methylbenzhydrylamine (MBHA) resin (Peninsula), 0.91 mmol/g; HBTU/DIEA
Settings: whole synthesis, analytical HPLC, scale of the general procedure 0.20 mmol

(Aib^2, Nle^14, β-Ala^29) Exendin-4(1-39)NH2
final purity (method not given): 98.0%
